Reference: PubChem BioAssay AID651640 (Broad Institute, 2012)
The campaign covered roughly 350,000 compounds. About 6,000 (1.7%) were called active. Inconclusive means that the source gave no clear call. Such entries were picked first, then a sample of the others. No stated cut-off is given here; in the data, active means CPE inhibition above about 20% (passing the limit was not always enough); inconclusive means no clear call, values can overlap the other calls; tested in BHK-21 cells.

Experiment: protection of cells from dengue 2 killing – plate reader, single concentration, primary screen (AID 651640);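 further: 0% = median of neutral control wells and 100% = median of positive control wells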
Settings: DENV2-infected cells, cytopathic effect rescue, at 9.99 µM, stronger effect = higher value

Row | SMILES | CPE inhibition
1 | C[C@H](CO)N1C[C@H](C)[C@@H](CN(C)Cc2ccc(C(=O)O)cc2)Oc2c(NC(=O)Cc3ccccc3)cccc2C1=O | active: 53%
2 | O=C(Nc1ccc2c(c1)[C@H]1C[C@H](CC(=O)N3CCOCC3)O[C@@H](CO)[C@H]1O2)NC1CCCC1 | inactive: 7.05%
3 | COc1ccc(N2CCN(C(CNC(=O)C(=O)NCCCn3ccnc3)c3ccco3)CC2)cc1 (stereo unspecified) | inactive: -7.53%
4 | CC(/C=C\c1ccccc1)=C/C(=O)O | inactive: 1.55%
5 | CCc1cccc(C)c1NC(=S)NCCc1c(C)[nH]c2ccc(C)cc12 | inconclusive: 32.1%
6 | CN(C)c1ccc(-c2ccnc3c2CC(C)(C(=O)NCC2CCOCC2)O3)cc1 (stereo unspecified) | inconclusive: 34.7%
7 | CC1C(=O)CC2C3(C)CCC2(C(C)C(=O)O)C(=O)C13 (stereo unspecified) | inconclusive: 24.1%
8 | C=CC[C@@H](CC(=O)OC(C)(C)C)C(=O)OC[C@H]1CCCN1C(=O)[C@@H](CC=C)CC(=O)N(CCO)Cc1ccccc1 | inconclusive: 22.7%
9 | COc1ccc(NC(=O)N(C)C[C@@H]2Oc3ccc(NC(=O)Nc4ccccc4)cc3C(=O)N([C@@H](C)CO)C[C@H]2C)cc1 | inconclusive: 23.2%
10 | CO[C@H]1CN(C)C(=O)c2ccc(NC(=O)c3ccccc3F)cc2OC[C@@H](C)NC[C@@H]1C | inactive: -4.02%
11 | COC(=O)[C@@]1(Cc2ccccc2)[C@H]2C(=O)N(C)C(=O)[C@H]2[C@H]2CN(C)C(=NCc3ccccc3)N21 | inconclusive: 35.6%
12 | CC(C)c1cccc(-c2ccc3c(c2)S(=O)(=O)c2cccc(C(=O)O)c2C3=O)c1 | inconclusive: 30.4%
13 | C[C@H]1CN([C@@H](C)CO)S(=O)(=O)c2ccc(/C=C/c3ccccc3)cc2O[C@H]1CN(C)C(=O)C1CC1 | inactive: 1.9%
14 | Cc1ccc(S(=O)(=O)Nc2ccc3c(c2)C(=O)N([C@H](C)CO)C[C@H](C)[C@@H](CN(C)S(=O)(=O)c2cn(C)cn2)OCCCC[C@H](C)O3)cc1 | active: 39.2%
15 | C[C@H]1CCCCO[C@@H](CN(C)C(=O)NC2CCCCC2)[C@@H](C)CN([C@@H](C)CO)C(=O)c2cc(NS(=O)(=O)c3ccccc3)ccc2O1 | active: 30.3%
16 | CN1C(=O)N[C@@H]2c3ccccc3O[C@@]1(C)[C@@H]2CO | active: 20.5%
17 | COc1ccc(C(=O)CC(c2ccccc2)C2CCCCC2=O)cc1 (stereo unspecified) | inconclusive: 33.2%
18 | O=C(C1CCOCC1)N1[C@@H](CO)[C@@H]2c3ccccc3NC[C@@H]21 | inactive: -13.7%

Row | SMILES | CPE inhibition
19 | COc1ccc(CN(C)CC(O)COC(c2ccccc2)c2ccccc2)c(OC)c1OC (stereo unspecified) | inconclusive: 31.9%
20 | O=C(NC1=NCCCCC1)c1cccc2ccccc12 | inconclusive: 24%
21 | CO[C@@H]1CN(C)C(=O)c2ccc(NS(=O)(=O)c3ccccc3)cc2OC[C@H](C)N(Cc2cccnc2)C[C@@H]1C | inactive: -8.13%
22 | COCCNC(=O)C1(C)CCCN(C(=O)c2cc(C)on2)C1 (stereo unspecified) | inconclusive: 66.9%
23 | C[C@@H]1CN([C@H](C)CO)C(=O)CCCn2nncc2CO[C@H]1CN(C)C(=O)c1ccccc1 | inconclusive: 26.9%
24 | C[C@@H]1CN([C@H](C)CO)C(=O)c2cc(NS(=O)(=O)c3ccccc3)ccc2O[C@@H]1CN(C)Cc1ccc(C(=O)Nc2ccccc2N)cc1 | inactive: 4.88%
25 | Oc1c(C=C2N=c3ccccc3=N2)sc(=S)n1-c1ccccc1 | inactive: -1.69%
26 | CCC(=O)N1CCCCN2[C@H](CO)[C@H](c3ccc(-c4cccc(C#N)c4)cc3)[C@H]2C1 | inconclusive: 25.4%
27 | Cc1nc([N+](=O)[O-])c(Br)n1Cc1ccccc1 | inactive: 2.61%
28 | OC[C@@H]1[C@H](c2ccc(-c3cccc(F)c3)cc2)[C@@H]2CN(Cc3cncnc3)CCCCN12 | inconclusive: 21.9%
29 | C=CCOc1ccccc1CNn1c(C)n[nH]c1=S | active: 25.4%
30 | CC(C)NC(=O)N(C)C[C@H]1Oc2ccc(NC(=O)CCC(F)(F)F)cc2C(=O)N([C@@H](C)CO)C[C@@H]1C | active: 23.2%
31 | OC[C@H]1[C@@H](c2ccc(/C=C/c3ccccc3)cc2)[C@H]2CN(Cc3cccnc3)CCCCN21 | active: 23.8%
32 | COc1ccc(NC(=O)N(C)C[C@H]2Oc3ccc(NC(=O)Nc4cccc5ccccc45)cc3C(=O)N([C@H](C)CO)C[C@@H]2C)cc1 | inconclusive: 42.5%
33 | OC[C@H]1[C@H](c2ccc(-c3cccc(F)c3)cc2)[C@@H]2CN(Cc3cncnc3)CCCCN12 | active: 58.8%
34 | C[C@H]1CCCCO[C@@H](CN(C)S(=O)(=O)c2ccccc2)[C@@H](C)CN([C@@H](C)CO)C(=O)c2cc(NS(=O)(=O)c3ccc(F)cc3)ccc2O1 | inactive: 5.86%
35 | Cc1cccc(NC(=S)NC2CCCC2)n1 | inconclusive: 25.4%
36 | CCc1cc(=O)oc2cc(OC(C)C(=O)N3CC[C@@]4(O)CCCC[C@H]4C3)ccc12 (stereo partly specified) | inconclusive: 25.1%

Not a retest: entries from further up.
Row | SMILES | CPE inhibition
33 | OC[C@H]1[C@H](c2ccc(-c3cccc(F)c3)cc2)[C@@H]2CN(Cc3cncnc3)CCCCN12 | active: 58.8%
34 | C[C@H]1CCCCO[C@@H](CN(C)S(=O)(=O)c2ccccc2)[C@@H](C)CN([C@@H](C)CO)C(=O)c2cc(NS(=O)(=O)c3ccc(F)cc3)ccc2O1 | inactive: 5.86%
